Data source: PubChem BioAssay AID493246 (Drosophila RNAi Screening Center, 2011)
The screen tested about 21,000 reagents; this is a random part of those with a known target gene and a result. Of all reagents, 429 (2%) are marked active. 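Values are raw and not normalised between plates; calls rest on per-plate z-scores that were not deposited.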 Reagents against one gene are numbered here. The record does not give: the amount of reagent, the time to read-out.

Screen: 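Genome-wide search for dsRNAs that reduce cell number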 (primary screen)
System: Drosophila Kc and S2R+ cells
Reagent: long dsRNA against Drosophila genes
Read-out: 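Cell number per well after knock-down, printed as raw plate values; calls were based on per-plate z-scores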
Direction: Kc cell number and S2R+ cell number: higher = more cells remaining
Active means: 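Counted as a hit if cell number falls by a z-score of at least 3 within its plate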

Against CG43066 (GeneID 37129), the values are Kc cell number, rep 1 = 1.39e6; Kc cell number, rep 2 = 1.38e6; S2R+ cell number, rep 1 = 1.17e6; S2R+ cell number, rep 2 = 1.22e6; inactive.
With knock-down of eIF1 (GeneID 38398), the record shows Kc cell number, rep 1 = 1.14e6; Kc cell number, rep 2 = 1.13e6; S2R+ cell number, rep 1 = 8.72e5; S2R+ cell number, rep 2 = 1.08e6; inactive.
Against CG8476 (GeneID 41624), the values are Kc cell number, rep 1 = 1.40e6; Kc cell number, rep 2 = 1.36e6; S2R+ cell number, rep 1 = 1.10e6; S2R+ cell number, rep 2 = 1.19e6; inactive.
Against bun (GeneID 34665) #1, the entry reads Kc cell number, rep 1 = 1.59e6; Kc cell number, rep 2 = 1.67e6; S2R+ cell number, rep 1 = 1.12e6; S2R+ cell number, rep 2 = 1.26e6; inactive.
Knock-down of bun (GeneID 34665) #2 came out at: Kc cell number, rep 1 = 1.58e6; Kc cell number, rep 2 = 1.74e6; S2R+ cell number, rep 1 = 1.13e6; S2R+ cell number, rep 2 = 1.26e6; inactive.
bun (GeneID 34665) #3 gave Kc cell number, rep 1 = 1.18e6; Kc cell number, rep 2 = 1.30e6; S2R+ cell number, rep 1 = 6.54e5; S2R+ cell number, rep 2 = 7.71e5; inactive.
Against CheB53b (GeneID 3346204), the entry reads Kc cell number, rep 1 = 5.80e5; S2R+ cell number, rep 1 = 7.49e5; inactive.
With knock-down of Pi4KIIIalpha (GeneID 31247), the record shows Kc cell number, rep 1 = 1.53e6; Kc cell number, rep 2 = 1.46e6; S2R+ cell number, rep 1 = 9.84e5; S2R+ cell number, rep 2 = 1.04e6; inactive.
Depletion of CG4619 (GeneID 34321) resulted in: Kc cell number, rep 1 = 1.37e6; Kc cell number, rep 2 = 1.45e6; S2R+ cell number, rep 1 = 1.13e6; S2R+ cell number, rep 2 = 1.22e6; inactive.
Against AP-1sigma (GeneID 42835), the entry reads Kc cell number, rep 1 = 1.54e6; Kc cell number, rep 2 = 1.58e6; S2R+ cell number, rep 1 = 1.13e6; S2R+ cell number, rep 2 = 1.26e6; inactive.
For angel (GeneID 37748) the deposit lists Kc cell number, rep 1 = 1.44e6; Kc cell number, rep 2 = 1.49e6; S2R+ cell number, rep 1 = 1.23e6; S2R+ cell number, rep 2 = 1.30e6; inactive.
Silencing of CG30287 (GeneID 246530) gave: Kc cell number, rep 1 = 5.36e5; S2R+ cell number, rep 1 = 8.89e5; inactive.
For CG7963 (GeneID 41001), the entry reads Kc cell number, rep 1 = 1.50e6; Kc cell number, rep 2 = 1.66e6; S2R+ cell number, rep 1 = 1.23e6; S2R+ cell number, rep 2 = 1.33e6; inactive.
For CG14803 (GeneID 31142), the values are Kc cell number, rep 1 = 1.78e6; Kc cell number, rep 2 = 1.81e6; S2R+ cell number, rep 1 = 1.13e6; S2R+ cell number, rep 2 = 1.27e6; inactive.
CG1637 (GeneID 32019) #1 scored Kc cell number, rep 1 = 1.33e6; Kc cell number, rep 2 = 1.58e6; S2R+ cell number, rep 1 = 1.08e6; S2R+ cell number, rep 2 = 1.12e6; inactive.
Silencing of CG1637 (GeneID 32019) #2 came out at: Kc cell number, rep 1 = 5.46e5; S2R+ cell number, rep 1 = 7.90e5; inactive.
With knock-down of CG1637 (GeneID 32019) #3, the screen gave Kc cell number, rep 1 = 1.51e6; Kc cell number, rep 2 = 1.48e6; S2R+ cell number, rep 1 = 1.02e6; S2R+ cell number, rep 2 = 1.16e6; inactive.

Part of the list above, showing only “Kc cell number, rep 2”:
CG43066 (GeneID 37129)	1.38e6
eIF1 (GeneID 38398)	1.13e6
CG8476 (GeneID 41624)	1.36e6
bun (GeneID 34665) #1	1.67e6

Continued.
After knock-down of CG11251 (GeneID 39490) the results were Kc cell number, rep 1 = 1.46e6; Kc cell number, rep 2 = 1.68e6; S2R+ cell number, rep 1 = 1.45e6; S2R+ cell number, rep 2 = 1.59e6; inactive.
Against CG11300 (GeneID 37760) the deposit lists Kc cell number, rep 1 = 1.61e6; Kc cell number, rep 2 = 1.64e6; S2R+ cell number, rep 1 = 1.24e6; S2R+ cell number, rep 2 = 1.41e6; inactive.
CG8765 (GeneID 40147) scored Kc cell number, rep 1 = 1.37e6; Kc cell number, rep 2 = 1.40e6; S2R+ cell number, rep 1 = 8.95e5; S2R+ cell number, rep 2 = 9.78e5; inactive.
Knock-down of RhoGEF2 (GeneID 36915) gave: Kc cell number, rep 1 = 1.38e6; Kc cell number, rep 2 = 1.44e6; S2R+ cell number, rep 1 = 1.40e6; S2R+ cell number, rep 2 = 1.44e6; inactive.
After knock-down of Tap42 (GeneID 326166), the record shows Kc cell number, rep 1 = 1.57e6; Kc cell number, rep 2 = 1.76e6; S2R+ cell number, rep 1 = 1.16e6; S2R+ cell number, rep 2 = 1.21e6; inactive.
Knock-down of CG4021 (GeneID 37484) gave: Kc cell number, rep 1 = 1.63e6; Kc cell number, rep 2 = 1.72e6; S2R+ cell number, rep 1 = 1.28e6; S2R+ cell number, rep 2 = 3.58e5; inactive.
CG17105 (GeneID 34466) gave Kc cell number, rep 1 = 1.70e6; Kc cell number, rep 2 = 1.66e6; S2R+ cell number, rep 1 = 1.28e6; S2R+ cell number, rep 2 = 1.54e6; inactive.
Depletion of CG14258 (GeneID 43260) gave: Kc cell number, rep 1 = 1.42e6; Kc cell number, rep 2 = 1.47e6; S2R+ cell number, rep 1 = 9.82e5; S2R+ cell number, rep 2 = 1.07e6; inactive.
CG31522 (GeneID 40567) showed Kc cell number, rep 1 = 1.31e6; Kc cell number, rep 2 = 1.42e6; S2R+ cell number, rep 1 = 1.13e6; S2R+ cell number, rep 2 = 1.34e6; inactive.
With knock-down of beta-PheRS (GeneID 42888) the results were Kc cell number, rep 1 = 1.47e6; Kc cell number, rep 2 = 1.54e6; S2R+ cell number, rep 1 = 1.12e6; S2R+ cell number, rep 2 = 1.19e6; inactive.
